Laboratory results reported in PMC6589090.
These are yes or no findings as the source states them, for the method shown. In cells and extracts the contact can be indirect. For some of these results: Binding calls can cover weak binding; strength is not graded here.

By UniProt entry, the sequences of proteins in these tests, tags left out.
UniProt Q6PCJ1: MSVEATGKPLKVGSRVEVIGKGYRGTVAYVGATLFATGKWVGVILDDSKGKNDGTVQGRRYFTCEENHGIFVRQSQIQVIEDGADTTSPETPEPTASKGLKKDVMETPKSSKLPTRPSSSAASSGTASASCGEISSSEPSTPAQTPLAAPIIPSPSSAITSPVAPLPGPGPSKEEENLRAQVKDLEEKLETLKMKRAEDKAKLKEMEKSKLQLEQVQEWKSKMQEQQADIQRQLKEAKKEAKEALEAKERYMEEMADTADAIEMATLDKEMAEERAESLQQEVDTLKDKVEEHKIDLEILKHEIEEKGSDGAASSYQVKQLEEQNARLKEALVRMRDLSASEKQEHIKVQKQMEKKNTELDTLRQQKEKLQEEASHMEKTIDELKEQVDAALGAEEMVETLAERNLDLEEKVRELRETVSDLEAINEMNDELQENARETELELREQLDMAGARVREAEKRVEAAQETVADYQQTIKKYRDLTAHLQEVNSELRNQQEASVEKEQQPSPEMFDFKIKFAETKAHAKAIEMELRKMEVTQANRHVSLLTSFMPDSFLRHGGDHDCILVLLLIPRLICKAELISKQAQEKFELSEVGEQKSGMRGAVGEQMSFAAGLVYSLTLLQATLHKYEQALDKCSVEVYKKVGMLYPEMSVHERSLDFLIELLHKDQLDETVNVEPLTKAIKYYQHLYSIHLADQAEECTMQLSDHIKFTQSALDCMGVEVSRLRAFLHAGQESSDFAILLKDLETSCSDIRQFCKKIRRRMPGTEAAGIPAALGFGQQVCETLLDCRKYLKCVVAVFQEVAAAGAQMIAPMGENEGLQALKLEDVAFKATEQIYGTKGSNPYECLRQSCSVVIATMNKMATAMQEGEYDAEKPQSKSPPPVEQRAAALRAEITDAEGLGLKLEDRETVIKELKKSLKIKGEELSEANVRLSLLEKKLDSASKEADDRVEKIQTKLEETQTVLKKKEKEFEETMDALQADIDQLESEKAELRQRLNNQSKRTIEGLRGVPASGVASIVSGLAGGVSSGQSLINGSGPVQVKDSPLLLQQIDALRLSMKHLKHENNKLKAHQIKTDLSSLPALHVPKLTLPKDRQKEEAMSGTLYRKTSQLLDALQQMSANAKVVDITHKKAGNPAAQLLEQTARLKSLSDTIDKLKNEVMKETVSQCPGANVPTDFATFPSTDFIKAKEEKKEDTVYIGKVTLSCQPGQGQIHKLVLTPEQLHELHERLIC
UniProt P52297: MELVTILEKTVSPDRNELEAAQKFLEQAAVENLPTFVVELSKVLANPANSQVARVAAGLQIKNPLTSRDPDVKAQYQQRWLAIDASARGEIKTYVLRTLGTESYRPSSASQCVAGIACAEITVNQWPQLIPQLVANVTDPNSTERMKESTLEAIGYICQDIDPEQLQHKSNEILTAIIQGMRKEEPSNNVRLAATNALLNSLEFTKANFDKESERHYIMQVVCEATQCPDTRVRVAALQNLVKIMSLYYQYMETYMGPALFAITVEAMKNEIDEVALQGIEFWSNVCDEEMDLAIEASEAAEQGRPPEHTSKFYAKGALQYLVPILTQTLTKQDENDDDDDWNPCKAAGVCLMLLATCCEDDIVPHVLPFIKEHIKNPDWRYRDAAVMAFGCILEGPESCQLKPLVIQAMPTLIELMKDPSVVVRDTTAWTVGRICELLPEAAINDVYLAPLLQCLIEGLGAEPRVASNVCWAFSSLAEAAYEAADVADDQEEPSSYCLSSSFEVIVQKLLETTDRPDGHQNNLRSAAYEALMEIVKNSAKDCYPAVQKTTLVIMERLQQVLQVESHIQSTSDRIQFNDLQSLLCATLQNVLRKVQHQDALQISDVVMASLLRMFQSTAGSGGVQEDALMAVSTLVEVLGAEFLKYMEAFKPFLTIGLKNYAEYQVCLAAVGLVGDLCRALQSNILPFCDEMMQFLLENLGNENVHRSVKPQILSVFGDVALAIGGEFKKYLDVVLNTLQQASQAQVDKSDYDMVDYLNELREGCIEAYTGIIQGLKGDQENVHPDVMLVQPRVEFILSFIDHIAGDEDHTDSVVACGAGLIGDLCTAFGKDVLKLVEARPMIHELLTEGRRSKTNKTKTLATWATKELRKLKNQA

Columns and labels:
[1] = target: MBP–xDnaJB6-L (Xenopus laevis); assay: condition: only without RanGTP added to the extract; pull-down; MBP–xDnaJB6-L on protein A Dynabeads coated with anti-MBP antibody, incubated in CSF-arrested Xenopus egg extract without RanGTP, 15 min at 20°C then 30 min on ice; three washes in CSF-XB and one in PBS containing NP40; western blot; only the target purified
[2] = target: MBP–xDnaJB6-L (Xenopus laevis); assay: pull-down; MBP–xDnaJB6-L on protein A Dynabeads coated with anti-MBP antibody, incubated in CSF-arrested Xenopus egg extract with 15 μM RanQ69L-GTP, 15 min at 20°C then 30 min on ice; three washes in CSF-XB and one in PBS containing NP40; western blot; only the target purified
[3] = target: GST–xDnaJB6-L (Xenopus laevis); assay: pull-down; GST–xDnaJB6-L on protein A Dynabeads coated with anti-GST antibody, incubated in CSF-arrested Xenopus egg extract without RanGTP, 15 min at 20°C then 30 min on ice; three washes in CSF-XB; western blot; only the target purified
[4] = target: GST–xDnaJB6-L (Xenopus laevis); assay: condition: only with RanGTP (RanQ69L-GTP, 15 μM) added to the extract; pull-down; GST–xDnaJB6-L on protein A Dynabeads coated with anti-GST antibody, incubated in CSF-arrested Xenopus egg extract with 15 μM RanQ69L-GTP, 15 min at 20°C then 30 min on ice; three washes in CSF-XB; western blot; only the target purified

Row | Substance | binding [1] | binding [2] | binding [3] | binding [4]
1 | dynactin subunit p150Glued (from UniProt Q6PCJ1 1-1232) | no binding | binds | – | –
2 | importin-β (from UniProt P52297 1-876) | – | – | binds | no binding
